Out of some 53,000 sequences screened, about 3,700 (7%) were called active.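 The calls were made as follows: active = gene knockdowns whose robust z-score for IL-1 alpha signal is at least 2 or at most -2, so actives lie on both sides; inactive = the rest.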 The list shows a part of the results.

This test is described as follows: Components of the Cytosolic LPS Sensing Pathway: Gene Identification via Genome-wide siRNA Screen.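 Also: robust z of the log signal after scaling to non-targeting control siRNA wells of the plate.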 The following applies: RAW264.7 macrophages, IL-1a HTRF, actives lie on both sides, screened at 100 nM (by protocol), cells primed 5 h with Pam3CSK4 first. In a few lines: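 Three distinct siRNAs per gene were tested singly at 100 nM in RAW264.7 macrophages. Following Pam3CSK4 priming and 24 hour LipidA transfection, IL-1a secretion was read by HTRF.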
For orientation: Time-resolved FRET reads energy transfer from a long-lived donor to a nearby acceptor.
Turning to GGAUGCUAAUUCAAGUCUUTT against Slc1a7, the z-score was inactive: 0.292.

Take CCUUCUCUAUGAUCAGGCUTT against Doc2a: the z-score was inactive: 0.0548.

GGUAGACAACAGGUUGUUGTT against Crhbp: the z-score was inactive: 0.217. Under GGAAAAAACCUUUGACCAATT against Terb1 stands inactive: -0.595; under GGCCUGUUGAUUGCAUAUUTT against Sppl2a, inactive: -1.01. “GGAAGUUUUAGUCCCUCUUTT against 4632415L05Rik”: the z-score was inactive: 0.471. Regarding “CGUCUCUAUAUACAUACAATT against 9930038B18Rik”, the z-score is inactive: 0.845. The result for GGAGGUGAACAGAUCUCACTT against Fubp1 reads inactive: 0.391. Consider GGACCUCCUGUUUUUAUUCTT against Ppip5k2, for which the z-score was inactive: 1.23. The result for GGACGAAAAGGAAUAUAUGTT against Cul1 reads inactive: -0.422; that for GGACAAGGGCACAUCCAGUTT against Gtf2h4, inactive: -0.187. Regarding GCAUGGACUGACAUCAAGCTT against Map6, the z-score was inactive: 0.0516. The result for GGUCGUAAGUUUCAUAAUUTT against Aqp3 reads inactive: -0.1. Under “GGACAAAACAUGGAAAAGCTT against 4930486L24Rik” stands inactive: -0.638; under GGACCUUAGCUGCUCUAACTT against Adgrb3, inactive: 0.975; under “GGCACUACUAUCAAGACAGTT against 4933436I01Rik”, inactive: -0.109. On to ACUUCUGGCUCCGUUAAGGTT against Krt42, for which the z-score was inactive: 0.878.

As to GGUUCUUGUGGAUCUUACCTT against Olfr1424, the z-score was inactive: 0.353. The result for CGUAUUAACGACAUAAGAGTT against Nckap1 reads inactive: -0.169; that for GGUGUUCAUUGAAGUCCAGTT against Nudcd2, inactive: -0.0478; that for GGACCUGUUCAUUUUUGUCTT against Pdgfrb, inactive: 1.43. Turning to GGACUAUAUCAGCGGAAGUTT against Sidt2, the z-score is inactive: 1.77.

As to CGUUCUUAUUACAUCUGAUTT against Omt2b, the z-score was inactive: -0.324.

Turning to GCGUAGGUCAUCCUUGUAATT against Samd4, the z-score was active: -2.22. The result for GGGAAAGGAGCCAUUAUUGTT against Atat1 reads inactive: -1.26; that for GGGAUUGAGUUUGUCCUAUTT against Olfr453, inactive: -0.368. Under CCGUCAACUUCUAGAUGGUTT against Trpm5 stands inactive: -0.115.

For GGAGCCAAGUGUGAUUACATT against Pias3, the z-score is active: 6.29. For the sequence GGCUCUCUGUCUGGAAAAGTT against Vcan, the z-score was inactive: -1.25. Under GGAGACGAUGGAAUAUUUGTT against Snx3 stands inactive: -0.947; under GCCAACAGAAAUAAGCCUUTT against Sorcs1, inactive: 0.221; under GGAGAUUAGUUGUGACUGATT against Clec5a, inactive: -0.527. Under GGUUGCUCUUAAGAUCAAUTT against Crx stands inactive: 1.16; under GGUAGCACUUUGUAUUUUATT against Spg7, inactive: 0.575. The result for GGCAGAAGGUCUAUGAUUGTT against Zfp637 reads inactive: 1.32. Consider GGUACUGUGUCUGAUGUAATT against Cnpy1, for which the z-score was inactive: -1.43.

Regarding GGUGGUAAUUGGCUACUUUTT against Slc31a2, the z-score was inactive: 0.16.

Turning to GGAUACAGUCAAAUUACUUTT against Usp9y, the z-score was inactive: 0.527. The result for CCAGCUAUGUGUAUAAACCTT against Ppid reads inactive: -0.045; that for “CCAAGGAAGUAGAUAAACUTT against 1700074P13Rik”, inactive: 0.232.

On to GCCCUCUCACAUCAGUAUUTT against Lpcat2b, for which the z-score is inactive: 0.17. The result for GCCCUUGAAGAUCAUUAGCTT against Dph7 reads inactive: -0.0738; that for GGCUGAGAAAACCAAAGGGTT against Cfdp1, inactive: 1.9. The result for GGCUUUUAUUUUCUGGGAUTT against Barhl1 reads active: 2.4; that for CCCAUGAUUCCAGAAAAGATT against Mfsd4b5, inactive: 0.57. As for GGAGGAAAUGAUCACAGCUTT against Ccl20, the z-score is active: -2.31. The result for GGUCUACUUCUUUUUUACGTT against Sema4d reads inactive: 0.467. The result for GACCUUCUACAGAUAUUACTT against Dbr1 reads inactive: -0.452.

As for GGGCCAAUUCUGAAACUUGTT against Il1f5, the z-score is inactive: 0.669.

For the sequence GCUAGAGGUAUCAUGCUGATT against B4galt6, the z-score is inactive: -0.0925. As for “GGAGAGUCUUGGAAAGGAATT against 3110082I17Rik”, the z-score is inactive: 0.79. Consider GGAGUGAGUCCUGAAGCAATT against Ifna12, for which the z-score was inactive: -0.372. For GGAUAGAACUCUAAGCCGUTT against Nkx2-2, the z-score was inactive: 0.626. With CGACUUUAAUUCCAAUCCUTT against Tmem97, the z-score is inactive: -1.35. In the case of GGUCAAUGGAGUUAGAAUATT against Atrn, the z-score was inactive: 0.0344. The result for GGACAUUCAGAAACAGAAGTT against Zfp451 reads inactive: -0.959; that for GGAAAUGACAAGUAUGAAGTT against Gria4, inactive: -1.33; that for GGUUCGACUUUCUUUGCCATT against Ola1, inactive: -0.614. The result for GGAUCCAGUAACCAUCAUGTT against Arhgap22 reads inactive: 0.095; that for CCUAUUCCUAACCACAAGATT against Plpp2, inactive: 1.51; that for CCCUUGAAGAUGAAACCAGTT against Smarca5, inactive: -0.277. The result for GGGUAUGCAUGAGCUACUATT against Tbc1d5 reads inactive: -1.27; that for CCUACAAAGUGGAUGUAAUTT against Fgfrl1, inactive: -0.429; that for CGGUUGAACCGGCCUCUUATT against Aco2, inactive: 0.557. Regarding GGUGCAAACGUAAACAUGATT against Asb4, the z-score was inactive: -0.79. Take CCGGUUACCAAUUGAUAAATT against Smc3: the z-score is inactive: -1.15. Under GGAGGAAGAACUGUCUUUGTT against Wasf1 stands inactive: 0.221; under GGAAUCAAUGUCUCAGCCATT against Fscn2, inactive: -0.329. Under CGUUACUAUUUGAUCCACCTT against Nrp2 stands inactive: 0.743; under CCGAACUCCUCAGAAUACGTT against Sidt1, inactive: 0.639. Under GGACCAACAUAACCUCUACTT against Tet3 stands inactive: 0.776; under GGAGUUGGAUAUUAUCUAUTT against Drg1, inactive: 1.04; under GGAAGAUGGGCUAUUUCAUTT against Gabra6, inactive: 0.545. Turning to CCAUGUGCGACCUGAUAAUTT against Cmtm7, the z-score was inactive: 0.155. Under UCUGCUCAACAUCGUCAAUTT against Sstr3 stands inactive: 0.719. The result for GGGCACUGAGUCUCCAAAATT against Rhbdf2 reads inactive: 0.388; that for GGAGAAACGAAAAGACUCUTT against Brpf1, active: -2.25; that for GCCUUACUGGGUUACUUGUTT against Cdkn2d, active: 3.22. Turning to GGAUUCAAUUUUUUGCCAUTT against Pbdc1, the z-score was inactive: -1.74. GGACUUUGAUGUUGAAUGUTT against Rapgef1: the z-score was inactive: -0.985. For the sequence CCAAAAGAGUUUUACAGGGTT against Lhx9, the z-score was inactive: -0.119. The result for CCGCUUUAAGAUAAACACUTT against Rpusd2 reads inactive: 0.319; that for CCUCCUGAUCAGAAAAGAUTT against Oplah, inactive: -0.168; that for GGCUCAACUGUGUUAAACATT against Tnfrsf4, inactive: -0.573. Under CUGUCUUAUGGAGUUGUGATT against Olfr270 stands inactive: -0.704; under GCAGAAAAACUAAUGUACATT against Arhgap5, inactive: 0.899; under GGGAACAAAAUAGAAACCATT against Lgi2, inactive: -1.58.

GGGAGCUCCAAGGUUACUUTT against Zfp658: the z-score was inactive: 1.26.

On to CGGUAGGUUAAAACAGAUGTT against Rnf152, for which the z-score was inactive: -0.0276.

For the sequence GGUACCAGGUAUCUUCAUUTT against Pard6g, the z-score is active: 2.95.

GGCAUAUUUGCCUGCAUAATT against Nkain4: the z-score was inactive: 1.93.

Take CCCUCUGUAUUGCGUACCUTT against Dusp14: the z-score was inactive: 0.264. For the sequence GGUGGAUAGUUAUAAAGCATT against Cep120, the z-score is inactive: -0.671. Under GGGACAAAUAAUGAUGUGUTT against Dmbt1 stands inactive: -1.6; under GGGAUUCGAAGGACAAUAGTT against Vmn1r211, active: -2.07; under GCUGGGUCCACAUGAAUCATT against Sucnr1, active: 2.7. The result for GGCAAUAACAGGAAAUCAATT against Pkp1 reads inactive: -0.148; that for GGACUUAUGUUGAAAACAGTT against Mapk8, inactive: -0.991; that for CCAGUUUCUGUUCUUCCCUTT against Clvs1, inactive: -0.298. Under GGUGAAUGAGAUGUCGGCCTT against Borcs5 stands inactive: 0.0925. Consider GGAGCAAAGAAAUAAAAGGTT against Olfr851, for which the z-score was inactive: -0.338.

In the case of GCAACUACCCAAGUGGAAGTT against Tdrd12, the z-score is inactive: 1.04.

Consider CGAAAGAUGGUGAGUCGGUTT against Ppp1r10, for which the z-score is inactive: -1.27. The result for GGUGCAUGCCAUUGAGUUUTT against Trim23 reads inactive: -0.161; that for GGAUGUAACUGAAAGAGAATT against Fam133b, inactive: -1.11. Under GGAAAACAAACUGCACUUCTT against Sdf4 stands inactive: -0.577.
